{"source": "PubChem BioAssay AID445", "about": "(National Center for Advancing Translational Sciences (NCATS), 2006)", "note": "The other results are listed elsewhere or left out. Shown are side measurements of this screen, not its main read-out; they come without a call. The list favours compounds with an active or inconclusive main result. Words in brackets tell the shape of the fitted curve; partial curves, single points and poor fits give uncertain potencies.", "data": [{"experiment": "IkB Signaling", "details": "ABC-DLBCL IkBa-CBG/CBR dual luciferase ratio (green luciferase fused to IkBa over red control in OCI-Ly3 lymphoma cells), 4 h; measured here: control luc red channel unless noted", "outline": "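Curves were fitted separately to fusion (green), unfused (red) and ratio luminescence, then classed by r2, magnitude and activity. Cells: OCI-Ly3, 4 h compound plus doxycycline at 37C; 10 uM MG-132 defined full response.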", "values": [{"smiles": "COc1ccc(-c2nnc(SCc3ccccc3F)o2)cc1OC", "AC50": "1.26 µM [rising, full curve]"}, {"smiles": "CN(C)CCNc1oc(-c2ccc(COc3ccc(Cl)cc3)o2)nc1C#N", "AC50": "25.1 µM [falling, partial curve]"}, {"smiles": "COc1ccc(N2CCN(Cc3nnc(-c4cccc(Br)c4)o3)CC2)cc1", "AC50": "20 µM [falling, partial curve]"}, {"smiles": "COc1ccc(CCNC(=O)C(C)n2c(=O)cc(C(F)(F)F)c3c(C)nn(C)c32)cc1OC", "note": "(configuration not stated)", "AC50": "12.6 µM [falling, partial curve]"}, {"smiles": "Cc1cc(C)cc(Oc2nc3c(C)cccn3c(=O)c2/C=C(\\C#N)c2nc3ccccc3s2)c1", "AC50": "10 µM [falling, partial curve]"}, {"smiles": "CCc1ccc(C(=O)c2cn(Cc3ccc(F)cc3)c3cc(OC)c(OC)cc3c2=O)cc1", "AC50": "39.8 µM [falling, single point]"}, {"smiles": "Cc1ccc(Cl)cc1-n1ncc2c(N3CCN(Cc4ccccc4)CC3)ncnc21", "AC50": "7.94 µM [falling, partial curve]"}, {"smiles": "COCCNc1ncnc2ccc(-c3cccnc3)cc12", "AC50": "3.16 µM [rising, partial curve]"}, {"smiles": "COc1ccc(NC(=O)CSc2nc3c(oc4ccccc43)c(=O)n2Cc2ccco2)cc1Cl", "AC50": "20 µM [rising, partial curve] [measured here: IkB-luc green channel]"}, {"smiles": "COc1ccc(CNC(=O)CN2C(=O)CSc3ccc(S(=O)(=O)N4CCC(C)CC4)cc32)cc1", "AC50": "15.8 µM [falling, single point]"}, {"smiles": "Cc1ccc(CCNc2ncnc3onc(-c4ccc(Cl)cc4)c23)cc1", "AC50": "39.8 µM [falling, single point]"}, {"smiles": "COc1cc(S(=O)(=O)NCCc2c(C)[nH]c3ccccc23)c(C)cc1C", "AC50": "39.8 µM [falling, partial curve]"}, {"smiles": "CN(C)S(=O)(=O)c1ccc(C(=O)NCCSc2c(-c3ccccc3)[nH]c3ccccc23)cc1", "AC50": "3.16 µM [falling, full curve]"}, {"smiles": "O=[N+]([O-])c1cccc2c(Br)[nH]nc12", "AC50": "15.8 µM [rising, partial curve, poor fit]"}, {"smiles": "Fc1cccc(-c2nnn3c2nc(NC2CCCCC2)c2ccccc23)c1", "AC50": "0.02 µM [falling, full curve]"}, {"smiles": "COc1ccc(NC(=O)C2=C(C)Nc3ncnn3C2c2cccn2C)cc1", "note": "(configuration not stated)", "AC50": "0.794 µM [falling, full curve, poor fit]"}, {"smiles": "Cc1cccc(-n2c(CNC(=O)c3cccc(F)c3)nnc2SCC(=O)Nc2ccccc2F)c1", "AC50": "25.1 µM [falling, partial curve]"}]}]}
